{"source": "PubChem BioAssay AID1159600 | NIAID, 2016", "aim": "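Effect of silencing core TLR signalling genes on R848-induced TNF reporter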 (primary screen)", "cells": "human THP-1 TNF reporter clone B5, made macrophage-like with PMA", "reagent": "single siRNA against human genes", "duration": "4 h ligand stimulation, assayed 48 to 72 h after siRNA transfection", "challenge": "R848 (TLR7/8 agonist) for 4 hours before lysis; dose not given", "measured": "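TNF promoter firefly to renilla luciferase ratio after 4 h R848, scaled per plate by median and MAD, robust z-score against negative controls, mean of replicates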", "reading the numbers": "TNF reporter z-score: higher = stronger TNF promoter reporter signal after R848", "rule for the call": "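Active where mean z-score is about 1.5 or more from zero in either direction; depositor grades use cut-offs of 1, 1.5, 2 and 2.5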", "calls": "active = strong change in TNF reporter (up or down); inactive = little change", "note": "The deposit covers 756 reagents; below is a random part of them. Over the whole deposit, 134 (18%) are marked active. 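Active includes both reduced and increased reporter signal, though most active siRNAs reduce it; R848 dose unknown.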 Reagents against one gene are numbered here. Reagent sequences are not shown. The record does not give: the amount of reagent."}
{"gene symbol": "TNF", "siRNA no.": 1, "TNF reporter z-score": 0.0424, "outcome": "inactive"}
{"gene symbol": "TNF", "siRNA no.": 2, "TNF reporter z-score": -1.03, "outcome": "inactive"}
{"gene symbol": "TNF", "siRNA no.": 3, "TNF reporter z-score": -0.804, "outcome": "inactive"}
{"gene symbol": "TNF", "siRNA no.": 4, "TNF reporter z-score": -1.16, "outcome": "inactive"}
{"gene symbol": "TNF", "siRNA no.": 5, "TNF reporter z-score": -0.811, "outcome": "inactive"}
{"gene symbol": "TNF", "siRNA no.": 6, "TNF reporter z-score": -2.17, "outcome": "active"}
{"gene symbol": "TLR7", "siRNA no.": 1, "TNF reporter z-score": -0.785, "outcome": "inactive"}
{"gene symbol": "TLR7", "siRNA no.": 2, "TNF reporter z-score": 1.61, "outcome": "active"}
{"gene symbol": "TLR7", "siRNA no.": 3, "TNF reporter z-score": -0.311, "outcome": "inactive"}
{"gene symbol": "TLR7", "siRNA no.": 4, "TNF reporter z-score": -0.234, "outcome": "inactive"}
{"gene symbol": "TLR7", "siRNA no.": 5, "TNF reporter z-score": 0.284, "outcome": "inactive"}
{"gene symbol": "TLR7", "siRNA no.": 6, "TNF reporter z-score": -0.168, "outcome": "inactive"}
{"gene symbol": "CXCL9", "siRNA no.": 1, "TNF reporter z-score": -1.65, "outcome": "active"}
{"gene symbol": "CXCL9", "siRNA no.": 2, "TNF reporter z-score": -0.582, "outcome": "inactive"}
{"gene symbol": "CXCL9", "siRNA no.": 3, "TNF reporter z-score": 0.709, "outcome": "inactive"}
{"gene symbol": "CXCL9", "siRNA no.": 4, "TNF reporter z-score": -2.35, "outcome": "active"}
{"gene symbol": "CXCL9", "siRNA no.": 5, "TNF reporter z-score": 1.34, "outcome": "inactive"}
{"gene symbol": "CXCL9", "siRNA no.": 6, "TNF reporter z-score": -1.33, "outcome": "inactive"}

Hits, among the entries above:
{"gene symbol": "TNF", "siRNA no.": 6, "TNF reporter z-score": -2.17, "outcome": "active"}
{"gene symbol": "TLR7", "siRNA no.": 2, "TNF reporter z-score": 1.61, "outcome": "active"}
{"gene symbol": "CXCL9", "siRNA no.": 1, "TNF reporter z-score": -1.65, "outcome": "active"}
{"gene symbol": "CXCL9", "siRNA no.": 4, "TNF reporter z-score": -2.35, "outcome": "active"}

Next results:
{"gene symbol": "MAPK12", "siRNA no.": 1, "TNF reporter z-score": -0.675, "outcome": "inactive"}
{"gene symbol": "MAPK12", "siRNA no.": 2, "TNF reporter z-score": -1.13, "outcome": "inactive"}
{"gene symbol": "MAPK12", "siRNA no.": 3, "TNF reporter z-score": 0.922, "outcome": "inactive"}
{"gene symbol": "MAPK12", "siRNA no.": 4, "TNF reporter z-score": 0.628, "outcome": "inactive"}
{"gene symbol": "MAPK12", "siRNA no.": 5, "TNF reporter z-score": -0.764, "outcome": "inactive"}
{"gene symbol": "MAPK12", "siRNA no.": 6, "TNF reporter z-score": -0.411, "outcome": "inactive"}
{"gene symbol": "TLR5", "siRNA no.": 1, "TNF reporter z-score": -0.0113, "outcome": "inactive"}
{"gene symbol": "TLR5", "siRNA no.": 2, "TNF reporter z-score": -0.318, "outcome": "inactive"}
{"gene symbol": "TLR5", "siRNA no.": 3, "TNF reporter z-score": 0.146, "outcome": "inactive"}
{"gene symbol": "TLR5", "siRNA no.": 4, "TNF reporter z-score": -0.238, "outcome": "inactive"}
{"gene symbol": "TLR5", "siRNA no.": 5, "TNF reporter z-score": -0.666, "outcome": "inactive"}
{"gene symbol": "TLR5", "siRNA no.": 6, "TNF reporter z-score": -0.729, "outcome": "inactive"}
{"gene symbol": "ETS1", "siRNA no.": 1, "TNF reporter z-score": -1.51, "outcome": "active"}
{"gene symbol": "ETS1", "siRNA no.": 2, "TNF reporter z-score": -0.406, "outcome": "inactive"}
{"gene symbol": "ETS1", "siRNA no.": 3, "TNF reporter z-score": -0.334, "outcome": "inactive"}
{"gene symbol": "ETS1", "siRNA no.": 4, "TNF reporter z-score": -0.278, "outcome": "inactive"}
{"gene symbol": "ETS1", "siRNA no.": 5, "TNF reporter z-score": 1.89, "outcome": "active"}
{"gene symbol": "ETS1", "siRNA no.": 6, "TNF reporter z-score": -1.12, "outcome": "inactive"}
{"gene symbol": "LY96", "siRNA no.": 1, "TNF reporter z-score": -0.541, "outcome": "inactive"}
{"gene symbol": "LY96", "siRNA no.": 2, "TNF reporter z-score": -1.5, "outcome": "active"}
{"gene symbol": "LY96", "siRNA no.": 3, "TNF reporter z-score": 1.46, "outcome": "inactive"}
{"gene symbol": "LY96", "siRNA no.": 4, "TNF reporter z-score": -0.589, "outcome": "inactive"}
{"gene symbol": "LY96", "siRNA no.": 5, "TNF reporter z-score": 0.846, "outcome": "inactive"}
{"gene symbol": "LY96", "siRNA no.": 6, "TNF reporter z-score": 0.346, "outcome": "inactive"}
{"gene symbol": "NFKBIB", "siRNA no.": 1, "TNF reporter z-score": -1.56, "outcome": "active"}
{"gene symbol": "NFKBIB", "siRNA no.": 2, "TNF reporter z-score": -0.529, "outcome": "inactive"}
{"gene symbol": "NFKBIB", "siRNA no.": 3, "TNF reporter z-score": 0.022, "outcome": "inactive"}
{"gene symbol": "NFKBIB", "siRNA no.": 4, "TNF reporter z-score": -1.56, "outcome": "active"}
{"gene symbol": "NFKBIB", "siRNA no.": 5, "TNF reporter z-score": 1.1, "outcome": "inactive"}
{"gene symbol": "NFKBIB", "siRNA no.": 6, "TNF reporter z-score": -0.643, "outcome": "inactive"}
